Assay results published in patent US20220298238A1.
These are yes or no findings as the source states them, for the method shown. Some binding calls cover weakened binding; strength is not graded here.

T1: P2X4 receptor peptide, amino acids 301-313 of rat P2X4 (…), N-terminal biotin (rat)
T1 sequence (peptide, N-terminal biotin tag): RDLAGKEQRTLTK

T2: P2X4 receptor on mouse trigeminal peripheral nerve cells (TG) (mouse) (UniProt Q9JJX6)
T2 sequence (looked up): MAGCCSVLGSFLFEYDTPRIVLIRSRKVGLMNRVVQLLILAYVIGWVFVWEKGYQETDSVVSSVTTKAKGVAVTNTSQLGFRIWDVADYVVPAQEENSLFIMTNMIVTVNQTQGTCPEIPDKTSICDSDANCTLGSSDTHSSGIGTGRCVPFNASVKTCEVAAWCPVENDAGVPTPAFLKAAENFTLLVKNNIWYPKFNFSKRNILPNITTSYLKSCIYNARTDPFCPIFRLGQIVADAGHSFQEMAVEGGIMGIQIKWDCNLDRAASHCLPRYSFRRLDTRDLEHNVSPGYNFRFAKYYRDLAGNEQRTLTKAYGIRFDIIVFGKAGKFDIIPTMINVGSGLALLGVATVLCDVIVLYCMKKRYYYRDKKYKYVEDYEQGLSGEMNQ


Tests used:
[1] = target: T1, P2X4 receptor peptide, amino acids 301-313 of rat P2X4 (…), N-terminal biotin (rat); assay: indirect ELISA on P2X4 peptide
[2] = target: T1, P2X4 receptor peptide, amino acids 301-313 of rat P2X4 (…), N-terminal biotin (rat); assay: FIG. 2B binding assay (indirect ELISA)
[3] = target: T2, P2X4 receptor on mouse trigeminal peripheral nerve cells (TG) (mouse); assay: adsorption block of immunostaining on isolated mouse trigeminal nerve cells

Row | binding [1] | binding [2] | binding [3] | Binder
1 | binds | binds | binds | anti-P2X4 scFv12 (scFv) scFv: MADVKLQESGPGLVKPSQSLSLTCSVTGYSITSGYYWNWIRQFPGNKLEWMGYISYDGSNNYNPSLKNRISITRDTSKNQFFLKLNSVTTEDTATYYCARSDYDLYYYAMDYWGQGTSVTVSSAKTTPPSGGGGSGGGGSGGGGGSGGGGSDIVMTQSPATLSVTPGDRVSLSCRASQSISDYLHWYQQKSHESPRLLIKYASQSISGIPSRFSGSGSGSDFTLSINSVEPEDVGVYYCQNGHSFPLTFGSGTKLEIKRADAAALEHHHHHH
2 | binds | binds |  | anti-P2X4 scFv95 (scFv) scFv: MAEVKLVESGGGLVQPGGSLRLSCATSGFTFTDYYMSWVRQPPGKALEWLGFIRNKANGYTTEYSASVKGRFTISRDNSQSILYLQMNTLRAEDSATYYCARWEGDLLYAMDYWGQGTSVTVSSGGGGSGGGGSGGGGGSGGGGSDIQMTQTTSSLSASLGDRVTISCSASQGISNYLNWYQQKPDGTVKLLIYYTSSLHSGVPSRFSGSGSGTDYSLTISNLEPEDIATYYCQQYSKLPWTFGGGTKLEIKRADAAALEHHHHHH
